Source: article PMC10117376
These are yes or no findings as the source states them, for the method shown. In cells and extracts the contact can be indirect. Here binding means that the protein was enriched with, or labelled near, the bait; the list need not be complete.

The chains behind the UniProt entries cited, without tags or fusion partners.
UniProt Q16650: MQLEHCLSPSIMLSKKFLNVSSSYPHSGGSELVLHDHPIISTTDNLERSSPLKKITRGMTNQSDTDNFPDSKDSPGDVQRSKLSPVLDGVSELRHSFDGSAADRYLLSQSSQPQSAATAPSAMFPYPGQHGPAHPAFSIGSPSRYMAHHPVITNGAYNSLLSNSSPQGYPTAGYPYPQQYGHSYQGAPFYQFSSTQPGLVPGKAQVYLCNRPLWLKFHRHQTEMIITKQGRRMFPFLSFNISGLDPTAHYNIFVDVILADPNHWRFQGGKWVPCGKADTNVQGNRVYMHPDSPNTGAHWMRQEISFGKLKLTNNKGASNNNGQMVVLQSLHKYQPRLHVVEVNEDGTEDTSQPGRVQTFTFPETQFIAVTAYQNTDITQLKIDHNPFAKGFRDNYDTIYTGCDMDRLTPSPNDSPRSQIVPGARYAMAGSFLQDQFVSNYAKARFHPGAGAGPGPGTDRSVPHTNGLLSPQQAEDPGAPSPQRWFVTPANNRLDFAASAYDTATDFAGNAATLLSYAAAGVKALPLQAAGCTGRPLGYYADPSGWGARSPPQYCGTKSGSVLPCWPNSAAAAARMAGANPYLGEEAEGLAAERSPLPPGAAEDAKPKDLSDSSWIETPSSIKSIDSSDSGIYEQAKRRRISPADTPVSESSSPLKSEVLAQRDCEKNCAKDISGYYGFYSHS
UniProt Q92878: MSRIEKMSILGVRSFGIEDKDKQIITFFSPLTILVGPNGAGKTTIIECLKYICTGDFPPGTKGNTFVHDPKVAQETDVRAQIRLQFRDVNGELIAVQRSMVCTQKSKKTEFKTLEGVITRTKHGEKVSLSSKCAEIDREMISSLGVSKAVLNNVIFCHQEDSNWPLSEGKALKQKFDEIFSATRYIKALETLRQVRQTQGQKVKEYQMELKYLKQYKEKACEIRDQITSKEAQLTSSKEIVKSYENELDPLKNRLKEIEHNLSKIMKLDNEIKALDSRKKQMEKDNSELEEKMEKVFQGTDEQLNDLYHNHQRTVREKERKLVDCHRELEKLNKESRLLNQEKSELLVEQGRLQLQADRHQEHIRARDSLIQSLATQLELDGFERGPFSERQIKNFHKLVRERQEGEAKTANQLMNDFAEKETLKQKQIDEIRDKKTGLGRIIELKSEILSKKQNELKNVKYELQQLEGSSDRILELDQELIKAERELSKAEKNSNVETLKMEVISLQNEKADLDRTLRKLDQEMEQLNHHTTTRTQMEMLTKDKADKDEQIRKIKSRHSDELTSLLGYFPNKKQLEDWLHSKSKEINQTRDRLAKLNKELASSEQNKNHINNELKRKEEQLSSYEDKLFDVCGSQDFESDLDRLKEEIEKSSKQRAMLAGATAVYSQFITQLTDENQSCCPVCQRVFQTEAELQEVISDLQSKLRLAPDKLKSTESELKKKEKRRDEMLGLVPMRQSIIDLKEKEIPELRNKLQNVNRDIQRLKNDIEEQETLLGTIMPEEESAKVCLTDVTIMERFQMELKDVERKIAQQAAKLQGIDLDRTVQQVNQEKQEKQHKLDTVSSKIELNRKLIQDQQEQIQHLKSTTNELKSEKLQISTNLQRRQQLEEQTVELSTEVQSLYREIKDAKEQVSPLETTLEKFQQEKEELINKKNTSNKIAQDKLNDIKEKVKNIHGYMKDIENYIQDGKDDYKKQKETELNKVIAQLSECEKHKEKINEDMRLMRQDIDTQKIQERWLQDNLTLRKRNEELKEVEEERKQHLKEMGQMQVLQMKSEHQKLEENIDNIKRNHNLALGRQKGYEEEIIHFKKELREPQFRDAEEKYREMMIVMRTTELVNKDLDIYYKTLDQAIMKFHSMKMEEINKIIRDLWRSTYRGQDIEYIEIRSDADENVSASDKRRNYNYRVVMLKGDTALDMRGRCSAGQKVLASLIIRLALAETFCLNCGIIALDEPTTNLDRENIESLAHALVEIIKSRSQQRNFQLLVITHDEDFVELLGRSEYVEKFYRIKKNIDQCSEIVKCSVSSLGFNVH
UniProt Q5VZL5: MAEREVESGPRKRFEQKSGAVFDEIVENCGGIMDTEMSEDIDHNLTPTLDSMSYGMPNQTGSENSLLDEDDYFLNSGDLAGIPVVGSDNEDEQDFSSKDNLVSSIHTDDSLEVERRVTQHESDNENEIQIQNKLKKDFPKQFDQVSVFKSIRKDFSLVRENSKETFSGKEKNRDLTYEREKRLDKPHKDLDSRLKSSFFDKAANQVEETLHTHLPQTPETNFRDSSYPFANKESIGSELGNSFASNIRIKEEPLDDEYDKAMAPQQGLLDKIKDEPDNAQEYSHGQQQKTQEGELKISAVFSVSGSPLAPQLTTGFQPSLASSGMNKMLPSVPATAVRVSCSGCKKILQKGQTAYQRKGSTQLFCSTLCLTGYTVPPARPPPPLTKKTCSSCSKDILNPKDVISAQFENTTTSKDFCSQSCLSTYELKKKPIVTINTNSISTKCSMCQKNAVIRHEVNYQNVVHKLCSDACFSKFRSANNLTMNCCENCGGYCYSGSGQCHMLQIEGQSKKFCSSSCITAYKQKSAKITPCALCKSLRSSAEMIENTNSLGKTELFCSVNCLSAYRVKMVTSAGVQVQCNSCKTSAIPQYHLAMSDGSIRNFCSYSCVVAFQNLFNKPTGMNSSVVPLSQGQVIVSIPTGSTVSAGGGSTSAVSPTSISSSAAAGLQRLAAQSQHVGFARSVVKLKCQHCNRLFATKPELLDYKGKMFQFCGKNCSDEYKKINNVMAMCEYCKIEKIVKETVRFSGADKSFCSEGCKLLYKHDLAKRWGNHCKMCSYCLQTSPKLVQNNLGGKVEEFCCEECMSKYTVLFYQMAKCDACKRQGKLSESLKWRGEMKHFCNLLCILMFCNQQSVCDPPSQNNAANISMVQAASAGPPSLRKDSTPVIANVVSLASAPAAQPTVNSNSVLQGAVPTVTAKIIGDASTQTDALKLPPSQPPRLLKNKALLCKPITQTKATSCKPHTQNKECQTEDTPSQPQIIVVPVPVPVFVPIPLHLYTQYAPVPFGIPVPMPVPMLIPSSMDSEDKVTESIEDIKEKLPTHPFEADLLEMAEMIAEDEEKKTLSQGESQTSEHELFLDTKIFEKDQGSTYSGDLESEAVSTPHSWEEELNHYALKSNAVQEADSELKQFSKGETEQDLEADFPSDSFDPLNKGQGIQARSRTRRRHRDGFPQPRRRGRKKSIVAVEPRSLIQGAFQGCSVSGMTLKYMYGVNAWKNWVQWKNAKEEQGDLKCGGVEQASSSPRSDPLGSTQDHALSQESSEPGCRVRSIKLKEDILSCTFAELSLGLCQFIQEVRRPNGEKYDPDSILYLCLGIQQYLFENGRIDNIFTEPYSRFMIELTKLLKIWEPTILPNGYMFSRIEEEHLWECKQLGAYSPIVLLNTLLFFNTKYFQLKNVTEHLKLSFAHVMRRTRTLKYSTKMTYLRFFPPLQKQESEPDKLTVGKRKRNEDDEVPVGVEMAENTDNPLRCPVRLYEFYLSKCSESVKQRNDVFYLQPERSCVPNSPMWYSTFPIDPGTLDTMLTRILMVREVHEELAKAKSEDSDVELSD
UniProt Q6W2J9: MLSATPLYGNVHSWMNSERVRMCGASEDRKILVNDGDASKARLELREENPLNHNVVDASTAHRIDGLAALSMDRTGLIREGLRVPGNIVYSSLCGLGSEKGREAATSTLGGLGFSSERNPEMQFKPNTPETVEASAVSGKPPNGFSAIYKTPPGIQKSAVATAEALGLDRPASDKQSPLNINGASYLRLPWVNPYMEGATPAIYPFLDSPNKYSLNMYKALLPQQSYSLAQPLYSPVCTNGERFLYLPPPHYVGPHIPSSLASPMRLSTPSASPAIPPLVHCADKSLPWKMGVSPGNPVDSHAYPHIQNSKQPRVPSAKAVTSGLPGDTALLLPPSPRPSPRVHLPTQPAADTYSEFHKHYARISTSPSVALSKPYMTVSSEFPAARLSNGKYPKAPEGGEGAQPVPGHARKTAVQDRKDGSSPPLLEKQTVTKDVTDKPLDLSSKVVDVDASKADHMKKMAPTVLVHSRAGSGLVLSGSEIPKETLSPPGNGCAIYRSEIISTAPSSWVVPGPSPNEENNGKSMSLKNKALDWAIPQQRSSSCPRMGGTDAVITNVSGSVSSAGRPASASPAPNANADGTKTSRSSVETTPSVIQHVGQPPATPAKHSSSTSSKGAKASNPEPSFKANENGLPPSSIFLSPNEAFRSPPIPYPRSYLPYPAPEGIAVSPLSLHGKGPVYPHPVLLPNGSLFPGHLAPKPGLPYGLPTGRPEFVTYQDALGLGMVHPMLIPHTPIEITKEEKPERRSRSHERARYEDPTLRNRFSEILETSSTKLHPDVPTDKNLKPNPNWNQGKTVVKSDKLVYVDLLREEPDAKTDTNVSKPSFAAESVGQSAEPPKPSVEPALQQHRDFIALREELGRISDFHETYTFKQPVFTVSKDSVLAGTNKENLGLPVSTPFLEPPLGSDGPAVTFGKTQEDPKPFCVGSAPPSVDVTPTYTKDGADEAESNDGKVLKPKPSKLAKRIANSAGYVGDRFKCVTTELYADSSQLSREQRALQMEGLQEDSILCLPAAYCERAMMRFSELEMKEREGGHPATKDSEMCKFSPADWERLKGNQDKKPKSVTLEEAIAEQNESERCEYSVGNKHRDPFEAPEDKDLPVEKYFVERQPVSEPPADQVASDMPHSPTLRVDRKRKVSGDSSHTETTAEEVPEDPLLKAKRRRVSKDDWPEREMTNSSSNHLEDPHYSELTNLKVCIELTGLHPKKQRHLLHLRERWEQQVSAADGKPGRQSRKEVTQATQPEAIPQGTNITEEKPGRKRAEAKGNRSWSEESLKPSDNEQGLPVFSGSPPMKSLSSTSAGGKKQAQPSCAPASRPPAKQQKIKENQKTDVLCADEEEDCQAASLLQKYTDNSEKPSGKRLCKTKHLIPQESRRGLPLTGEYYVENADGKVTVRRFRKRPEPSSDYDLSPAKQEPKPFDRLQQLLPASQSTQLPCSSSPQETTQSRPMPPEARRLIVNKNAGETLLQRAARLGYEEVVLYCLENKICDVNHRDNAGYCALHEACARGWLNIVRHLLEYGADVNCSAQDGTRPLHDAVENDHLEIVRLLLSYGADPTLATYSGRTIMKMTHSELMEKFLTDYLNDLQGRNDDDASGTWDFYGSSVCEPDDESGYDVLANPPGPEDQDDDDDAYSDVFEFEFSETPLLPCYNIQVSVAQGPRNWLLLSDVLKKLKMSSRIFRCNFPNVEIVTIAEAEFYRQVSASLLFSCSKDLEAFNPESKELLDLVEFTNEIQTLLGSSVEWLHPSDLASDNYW
UniProt O43491: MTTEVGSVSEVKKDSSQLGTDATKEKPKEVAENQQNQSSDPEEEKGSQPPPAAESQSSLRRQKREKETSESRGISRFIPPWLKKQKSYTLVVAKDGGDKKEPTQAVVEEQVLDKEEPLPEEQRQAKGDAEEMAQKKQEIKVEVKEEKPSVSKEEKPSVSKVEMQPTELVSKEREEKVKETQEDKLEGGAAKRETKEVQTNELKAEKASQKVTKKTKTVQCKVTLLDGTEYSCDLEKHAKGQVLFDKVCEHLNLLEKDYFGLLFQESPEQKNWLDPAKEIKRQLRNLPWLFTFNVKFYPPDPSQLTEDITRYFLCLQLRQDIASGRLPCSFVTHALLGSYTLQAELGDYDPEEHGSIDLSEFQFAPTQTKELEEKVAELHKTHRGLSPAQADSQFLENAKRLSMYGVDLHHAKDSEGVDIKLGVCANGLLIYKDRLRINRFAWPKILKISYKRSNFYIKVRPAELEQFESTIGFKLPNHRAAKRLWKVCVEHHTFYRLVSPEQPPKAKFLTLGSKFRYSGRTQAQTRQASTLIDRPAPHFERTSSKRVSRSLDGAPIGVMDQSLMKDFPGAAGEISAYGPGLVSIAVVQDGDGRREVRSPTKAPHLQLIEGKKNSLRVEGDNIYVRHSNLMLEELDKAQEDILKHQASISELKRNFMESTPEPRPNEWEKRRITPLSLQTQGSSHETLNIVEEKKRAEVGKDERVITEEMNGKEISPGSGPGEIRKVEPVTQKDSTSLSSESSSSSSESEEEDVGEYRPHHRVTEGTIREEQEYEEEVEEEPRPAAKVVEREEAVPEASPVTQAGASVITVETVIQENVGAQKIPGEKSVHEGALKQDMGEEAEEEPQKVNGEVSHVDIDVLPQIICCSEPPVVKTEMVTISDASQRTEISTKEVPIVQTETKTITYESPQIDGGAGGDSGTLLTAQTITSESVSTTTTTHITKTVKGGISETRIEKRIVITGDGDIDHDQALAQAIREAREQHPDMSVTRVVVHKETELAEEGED

target: 2×FLAG/V5-TBR1 (human) (UniProt Q16650); experiment: affinity purification with mass spectrometry; nuclear extract of HEK293 cells stably expressing 2xFLAG/V5-TBR1 on anti-FLAG M2 agarose beads, 3 h at 4°C, buffer C-100 (20 mM HEPES pH 7.6, 20% glycerol, 100 mM KCl, 1.5 mM MgCl2, 0.2 mM EDTA) with benzonase and ethidium bromide; eluted with FLAG-tripeptide; two independent purifications (AP1, AP2); untransfected cells as control

binding | Molecule
binds | RAD50 (from UniProt Q92878 1-1312)
binds | ZMYM4 (from UniProt Q5VZL5 1-1548)
binds | CHD7 (from UniProt Q9P2D1 1-2997)
binds | BCOR (endogenous) (from UniProt Q6W2J9 1-1755)
binds | ZFHX4 (from UniProt Q86UP3 1-3567)
binds | CYFIP2 (from UniProt Q96F07 1-1278)
binds | ANK2 (from UniProt Q01484 1-3957)
binds | MYO9B (from UniProt Q13459 1-2157)
binds | GATAD2B (endogenous) (from UniProt Q8WXI9 1-593)
binds | PAXIP1 (from UniProt Q6ZW49 1-1069)
binds | TP53 (from UniProt P04637 1-393)
binds | nuclear cap-binding protein NCBP1 (from UniProt Q09161 1-790)
binds | EPB41L2 (from UniProt O43491 1-1005)
binds | ANK3 (from UniProt Q12955 1-4377)
binds | STUB1 (from UniProt Q9UNE7 1-303)

target: 2×FLAG/V5-TBR1 (human) (UniProt Q16650); experiment: as above; remark: another data set of the same source

binding | Molecule
binds | MED23 (protein, UniProt Q9ULK4 1-1368) METQLQSIFEEVVKTEVIEEAFPGMFMDTPEDEKTKLISCLGAFRQFWGGLSQESHEQCIQWIVKFIHGQHSPKRISFLYDCLAMAVETGLLPPRLVCESLINSDTLEWERTQLWALTFKLVRKIIGGVDYKGVRDLLKVILEKILTIPNTVSSAVVQQLLAAREVIAYILERNACLLPAYFAVTEIRKLYPEGKLPHWLLGNLVSDFVDTFRPTARINSICGRCSLLPVVNNSGAICNSWKLDPATLRFPLKGLLPYDKDLFEPQTALLRYVLEQPYSRDMVCNMLGLNKQHKQRCPVLEDQLVDLVVYAMERSETEEKFDDGGTSQLLWQHLSSQLIFFVLFQFASFPHMVLSLHQKLAGRGLIKGRDHLMWVLLQFISGSIQKNALADFLPVMKLFDLLYPEKEYIPVPDINKPQSTHAFAMTCIWIHLNRKAQNDNSKLQIPIPHSLRLHHEFLQQSLRNKSLQMNDYKIALLCNAYSTNSECFTLPMGALVETIYGNGIMRIPLPGTNCMASGSITPLPMNLLDSLTVHAKMSLIHSIATRVIKLAHAKSSVALAPALVETYSRLLVYMEIESLGIKGFISQLLPTVFKSHAWGILHTLLEMFSYRMHHIQPHYRVQLLSHLHTLAAVAQTNQNQLHLCVESTALRLITALGSSEVQPQFTRFLSDPKTVLSAESEELNRALILTLARATHVTDFFTGSDSIQGTWCKDILQTIMSFTPHNWASHTLSCFPGPLQAFFKQNNVPQESRFNLKKNVEEEYRKWKSMSNENDIITHFSMQGSPPLFLCLLWKMLLETDHINQIGYRVLERIGARALVAHVRTFADFLVYEFSTSAGGQQLNKCIEILNDMVWKYNIVTLDRLILCLAMRSHEGNEAQVCYFIIQLLLLKPNDFRNRVSDFVKENSPEHWLQNDWHTKHMNYHKKYPEKLYFEGLAEQVDPPVQIQSPYLPIYFGNVCLRFLPVFDIVIHRFLELLPVSKSLETLLDHLGGLYKFHDRPVTYLYNTLHYYEMHLRDRAFLKRKLVHAIIGSLKDNRPQGWCLSDTYLKCAMNAREENPWVPDDTYYCRLIGRLVDTMAGKSPGPFPNCDWRFNEFPNPAAHALHVTCVELMALAVSGKEVGNALLNVVLKSQPLVPRENITAWMNAIGLIITALPEPYWIVLHDRIVSVISSPSLTSETEWVGYPFRLFDFTACHQSYSEMSCSYTLALAHAVWHHSSIGQLSLIPKFLTEVLLPIVKTEFQLLYVYHLVGPFLQRFQQERTRCMIEIGVAFYDMLLNVDQCSTHLNYMDPICDFLYHMKYMFTGDSVKEQVEKIICNLKPALKLRLRFITHISKMEPAAVPPQAMNSGSPAPQSNQVPVSLPVTQ
binds | PMPCA (protein, UniProt Q10713 34-525) SSGGAYPNIPLSSPLPGVPKPVFATVDGQEKFETKVTTLDNGLRVASQNKFGQFCTVGILINSGSRYEAKYLSGIAHFLEKLAFSSTARFDSKDEILLTLEKHGGICDCQTSRDTTMYAVSADSKGLDTVVALLADVVLQPRLTDEEVEMTRMAVQFELEDLNLRPDPEPLLTEMIHEAAYRENTVGLHRFCPTENVAKINREVLHSYLRNYYTPDRMVLAGVGVEHEHLVDCARKYLLGVQPAWGSAEAVDIDRSVAQYTGGIAKLERDMSNVSLGPTPIPELTHIMVGLESCSFLEEDFIPFAVLNMMMGGGGSFSAGGPGKGMFSRLYLNVLNRHHWMYNATSYHHSYEDTGLLCIHASADPRQVREMVEIITKEFILMGGTVDTVELERAKTQLTSMLMMNLESRPVIFEDVGRQVLATRSRKLPHELCTLIRNVKPEDVKRVASKMLRGKPAVAALGDLTDLPTYEHIQTALSSKDGRLPRTYRLFR
binds | PLOD1 (protein, UniProt Q02809 19-727) KGDAKPEDNLLVLTVATKETEGFRRFKRSAQFFNYKIQALGLGEDWNVEKGTSAGGGQKVRLLKKALEKHADKEDLVILFADSYDVLFASGPRELLKKFRQARSQVVFSAEELIYPDRRLETKYPVVSDGKRFLGSGGFIGYAPNLSKLVAEWEGQDSDSDQLFYTKIFLDPEKREQINITLDHRCRIFQNLDGALDEVVLKFEMGHVRARNLAYDTLPVLIHGNGPTKLQLNYLGNYIPRFWTFETGCTVCDEGLRSLKGIGDEALPTVLVGVFIEQPTPFVSLFFQRLLRLHYPQKHMRLFIHNHEQHHKAQVEEFLAQHGSEYQSVKLVGPEVRMANADARNMGADLCRQDRSCTYYFSVDADVALTEPNSLRLLIQQNKNVIAPLMTRHGRLWSNFWGALSADGYYARSEDYVDIVQGRRVGVWNVPYISNIYLIKGSALRGELQSSDLFHHSKLDPDMAFCANIRQQDVFMFLTNRHTLGHLLSLDSYRTTHLHNDLWEVFSNPEDWKEKYIHQNYTKALAGKLVETPCPDVYWFPIFTEVACDELVEEMEHFGQWSLGNNKDNRIQGGYENVPTIDIHMNQIGFEREWHKFLLEYIAPMTEKLYPGYYTRAQFDLAFVVRYKPDEQPSLMPHHDASTFTINIALNRVGVDYEGGGCRFLRYNCSIRAPRKGWTLMHPGRLTHYHEGLPTTRGTRYIAVSFVDP
binds | PMPCB (protein, UniProt O75439 44-489) STQAATQVVLNVPETRVTCLESGLRVASEDSGLSTCTVGLWIDAGSRYENEKNNGTAHFLEHMAFKGTKKRSQLDLELEIENMGAHLNAYTSREQTVYYAKAFSKDLPRAVEILADIIQNSTLGEAEIERERGVILREMQEVETNLQEVVFDYLHATAYQNTALGRTILGPTENIKSISRKDLVDYITTHYKGPRIVLAAAGGVSHDELLDLAKFHFGDSLCTHKGEIPALPPCKFTGSEIRVRDDKMPLAHLAIAVEAVGWAHPDTICLMVANTLIGNWDRSFGGGMNLSSKLAQLTCHGNLCHSFQSFNTSYTDTGLWGLYMVCESSTVADMLHVVQKEWMRLCTSVTESEVARARNLLKTNMLLQLDGSTPICEDIGRQMLCYNRRIPIPELEARIDAVNAETIREVCTKYIYNRSPAIAAVGPIKQLPDFKQIRSNMCWLRD
binds | ADNP (endogenous) (protein, UniProt Q9H2P0 1-1102) MFQLPVNNLGSLRKARKTVKKILSDIGLEYCKEHIEDFKQFEPNDFYLKNTTWEDVGLWDPSLTKNQDYRTKPFCCSACPFSSKFFSAYKSHFRNVHSEDFENRILLNCPYCTFNADKKTLETHIKIFHAPNASAPSSSLSTFKDKNKNDGLKPKQADSVEQAVYYCKKCTYRDPLYEIVRKHIYREHFQHVAAPYIAKAGEKSLNGAVPLGSNAREESSIHCKRCLFMPKSYEALVQHVIEDHERIGYQVTAMIGHTNVVVPRSKPLMLIAPKPQDKKSMGLPPRIGSLASGNVRSLPSQQMVNRLSIPKPNLNSTGVNMMSSVHLQQNNYGVKSVGQGYSVGQSMRLGLGGNAPVSIPQQSQSVKQLLPSGNGRSYGLGSEQRSQAPARYSLQSANASSLSSGQLKSPSLSQSQASRVLGQSSSKPAAAATGPPPGNTSSTQKWKICTICNELFPENVYSVHFEKEHKAEKVPAVANYIMKIHNFTSKCLYCNRYLPTDTLLNHMLIHGLSCPYCRSTFNDVEKMAAHMRMVHIDEEMGPKTDSTLSFDLTLQQGSHTNIHLLVTTYNLRDAPAESVAYHAQNNPPVPPKPQPKVQEKADIPVKSSPQAAVPYKKDVGKTLCPLCFSILKGPISDALAHHLRERHQVIQTVHPVEKKLTYKCIHCLGVYTSNMTASTITLHLVHCRGVGKTQNGQDKTNAPSRLNQSPSLAPVKRTYEQMEFPLLKKRKLDDDSDSPSFFEEKPEEPVVLALDPKGHEDDSYEARKSFLTKYFNKQPYPTRREIEKLAASLWLWKSDIASHFSNKRKKCVRDCEKYKPGVLLGFNMKELNKVKHEMDFDAEWLFENHDEKDSRVNASKTADKKLNLGKEDDSSSDSFENLEEESNESGSPFDPVFEVEPKISNDNPEEHVLKVIPEDASESEEKLDQKEDGSKYETIHLTEEPTKLMHNASDSEVDQDDVVEWKDGASPSESGPGSQQVSDFEDNTCEMKPGTWSDESSQSEDARSSKPAAKKKATMQGDREQLKWKNSSYGKVEGFWSKDQSQWKNASENDERLSNPQIEWQNSTIDSEDGEQFDNMTDGVAEPMHGSLAGVKLSSQQA
binds | LIN7C (protein, UniProt Q9NUP9 1-197) MAALGEPVRLERDICRAIELLEKLQRSGEVPPQKLQALQRVLQSEFCNAVREVYEHVYETVDISSSPEVRANATAKATVAAFAASEGHSHPRVVELPKTEEGLGFNIMGGKEQNSPIYISRIIPGGIADRHGGLKRGDQLLSVNGVSVEGEHHEKAVELLKAAQGKVKLVVRYTPKVLEEMESRFEKMRSAKRRQQT
